# Some of the results follow. The list holds hits alone, and they repeat only in part.
# Protein sequences, listed by entry. Tags and fused reporters are not part of them.
# CD2AP, Q9Y5K6, UniProt Q9Y5K6, whole entry: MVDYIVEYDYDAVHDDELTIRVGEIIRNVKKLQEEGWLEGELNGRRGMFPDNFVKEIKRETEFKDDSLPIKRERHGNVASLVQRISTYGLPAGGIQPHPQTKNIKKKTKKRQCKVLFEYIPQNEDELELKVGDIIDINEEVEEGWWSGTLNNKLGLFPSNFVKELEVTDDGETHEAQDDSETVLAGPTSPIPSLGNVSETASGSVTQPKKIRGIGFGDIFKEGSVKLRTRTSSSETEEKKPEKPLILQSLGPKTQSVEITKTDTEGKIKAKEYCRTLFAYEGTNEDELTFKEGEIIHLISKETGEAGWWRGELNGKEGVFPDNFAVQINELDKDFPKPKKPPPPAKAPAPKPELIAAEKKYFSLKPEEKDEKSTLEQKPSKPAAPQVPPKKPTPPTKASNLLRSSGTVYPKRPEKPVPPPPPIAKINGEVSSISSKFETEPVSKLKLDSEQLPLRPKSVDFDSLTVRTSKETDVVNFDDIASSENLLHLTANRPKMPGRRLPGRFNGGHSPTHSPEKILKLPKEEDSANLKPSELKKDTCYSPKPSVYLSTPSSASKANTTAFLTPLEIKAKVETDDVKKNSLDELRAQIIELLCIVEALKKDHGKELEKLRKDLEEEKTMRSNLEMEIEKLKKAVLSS
# CUL1, Q13616, UniProt Q13616, whole entry: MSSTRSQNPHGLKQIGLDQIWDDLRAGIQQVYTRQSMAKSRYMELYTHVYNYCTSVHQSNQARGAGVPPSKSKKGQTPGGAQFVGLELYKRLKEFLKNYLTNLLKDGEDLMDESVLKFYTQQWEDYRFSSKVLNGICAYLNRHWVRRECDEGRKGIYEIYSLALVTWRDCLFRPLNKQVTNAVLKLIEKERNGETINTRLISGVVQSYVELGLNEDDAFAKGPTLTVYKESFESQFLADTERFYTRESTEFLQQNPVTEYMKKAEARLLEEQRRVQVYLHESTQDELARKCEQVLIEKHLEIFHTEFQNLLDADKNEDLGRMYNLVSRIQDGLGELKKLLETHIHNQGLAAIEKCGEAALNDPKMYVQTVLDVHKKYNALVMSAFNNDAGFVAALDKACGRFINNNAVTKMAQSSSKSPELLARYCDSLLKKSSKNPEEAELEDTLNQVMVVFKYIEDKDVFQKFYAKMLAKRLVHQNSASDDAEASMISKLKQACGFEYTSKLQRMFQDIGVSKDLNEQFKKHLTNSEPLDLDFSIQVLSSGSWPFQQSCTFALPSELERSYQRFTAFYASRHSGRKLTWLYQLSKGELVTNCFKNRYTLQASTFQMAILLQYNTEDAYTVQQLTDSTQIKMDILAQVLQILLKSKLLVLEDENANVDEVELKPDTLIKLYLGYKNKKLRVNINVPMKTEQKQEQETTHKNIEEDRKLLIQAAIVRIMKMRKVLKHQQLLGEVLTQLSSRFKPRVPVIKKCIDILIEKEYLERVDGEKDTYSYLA
# HAX1, O00165, UniProt O00165, whole entry: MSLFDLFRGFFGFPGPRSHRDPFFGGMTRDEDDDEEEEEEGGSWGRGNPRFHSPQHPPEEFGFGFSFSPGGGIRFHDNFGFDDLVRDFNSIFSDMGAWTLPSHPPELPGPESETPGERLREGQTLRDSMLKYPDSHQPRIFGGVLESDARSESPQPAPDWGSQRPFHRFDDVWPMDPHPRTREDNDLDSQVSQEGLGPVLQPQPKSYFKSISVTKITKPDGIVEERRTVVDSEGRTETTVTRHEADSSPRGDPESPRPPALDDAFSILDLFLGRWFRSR
# HSPB1, P04792, UniProt P04792, whole entry: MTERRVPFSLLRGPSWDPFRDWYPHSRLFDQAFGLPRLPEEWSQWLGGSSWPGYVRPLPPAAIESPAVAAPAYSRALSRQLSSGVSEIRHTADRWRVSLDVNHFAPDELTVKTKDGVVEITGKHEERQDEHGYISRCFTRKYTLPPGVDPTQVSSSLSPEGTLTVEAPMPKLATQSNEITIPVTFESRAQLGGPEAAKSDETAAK
# IPO8, O15397, UniProt O15397, whole entry: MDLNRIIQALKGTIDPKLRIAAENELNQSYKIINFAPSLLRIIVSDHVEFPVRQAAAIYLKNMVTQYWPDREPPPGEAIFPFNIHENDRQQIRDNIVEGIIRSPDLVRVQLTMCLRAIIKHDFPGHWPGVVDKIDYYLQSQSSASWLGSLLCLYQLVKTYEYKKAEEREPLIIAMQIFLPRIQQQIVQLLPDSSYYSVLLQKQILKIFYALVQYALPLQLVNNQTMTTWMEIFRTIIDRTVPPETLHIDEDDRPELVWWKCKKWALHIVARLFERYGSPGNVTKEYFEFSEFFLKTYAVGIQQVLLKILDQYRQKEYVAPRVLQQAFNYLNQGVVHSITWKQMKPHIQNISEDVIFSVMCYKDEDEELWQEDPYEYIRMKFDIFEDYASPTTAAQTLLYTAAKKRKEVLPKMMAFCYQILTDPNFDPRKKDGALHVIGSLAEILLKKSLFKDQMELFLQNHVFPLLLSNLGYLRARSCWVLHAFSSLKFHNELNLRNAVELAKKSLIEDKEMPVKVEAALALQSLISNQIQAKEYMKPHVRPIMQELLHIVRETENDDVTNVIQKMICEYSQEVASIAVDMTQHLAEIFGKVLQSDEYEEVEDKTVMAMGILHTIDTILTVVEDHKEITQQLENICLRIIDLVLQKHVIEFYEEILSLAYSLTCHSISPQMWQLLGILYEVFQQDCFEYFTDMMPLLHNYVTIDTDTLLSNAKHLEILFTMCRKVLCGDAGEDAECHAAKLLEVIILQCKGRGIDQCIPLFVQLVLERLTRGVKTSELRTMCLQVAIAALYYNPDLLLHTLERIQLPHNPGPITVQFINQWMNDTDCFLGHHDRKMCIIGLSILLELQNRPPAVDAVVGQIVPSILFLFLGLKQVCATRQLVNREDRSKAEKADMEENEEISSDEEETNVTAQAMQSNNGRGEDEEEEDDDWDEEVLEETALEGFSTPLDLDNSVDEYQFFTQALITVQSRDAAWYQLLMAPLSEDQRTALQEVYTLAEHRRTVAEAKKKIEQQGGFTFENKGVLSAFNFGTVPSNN
# NCAPD2, Q15021, UniProt Q15021, whole entry: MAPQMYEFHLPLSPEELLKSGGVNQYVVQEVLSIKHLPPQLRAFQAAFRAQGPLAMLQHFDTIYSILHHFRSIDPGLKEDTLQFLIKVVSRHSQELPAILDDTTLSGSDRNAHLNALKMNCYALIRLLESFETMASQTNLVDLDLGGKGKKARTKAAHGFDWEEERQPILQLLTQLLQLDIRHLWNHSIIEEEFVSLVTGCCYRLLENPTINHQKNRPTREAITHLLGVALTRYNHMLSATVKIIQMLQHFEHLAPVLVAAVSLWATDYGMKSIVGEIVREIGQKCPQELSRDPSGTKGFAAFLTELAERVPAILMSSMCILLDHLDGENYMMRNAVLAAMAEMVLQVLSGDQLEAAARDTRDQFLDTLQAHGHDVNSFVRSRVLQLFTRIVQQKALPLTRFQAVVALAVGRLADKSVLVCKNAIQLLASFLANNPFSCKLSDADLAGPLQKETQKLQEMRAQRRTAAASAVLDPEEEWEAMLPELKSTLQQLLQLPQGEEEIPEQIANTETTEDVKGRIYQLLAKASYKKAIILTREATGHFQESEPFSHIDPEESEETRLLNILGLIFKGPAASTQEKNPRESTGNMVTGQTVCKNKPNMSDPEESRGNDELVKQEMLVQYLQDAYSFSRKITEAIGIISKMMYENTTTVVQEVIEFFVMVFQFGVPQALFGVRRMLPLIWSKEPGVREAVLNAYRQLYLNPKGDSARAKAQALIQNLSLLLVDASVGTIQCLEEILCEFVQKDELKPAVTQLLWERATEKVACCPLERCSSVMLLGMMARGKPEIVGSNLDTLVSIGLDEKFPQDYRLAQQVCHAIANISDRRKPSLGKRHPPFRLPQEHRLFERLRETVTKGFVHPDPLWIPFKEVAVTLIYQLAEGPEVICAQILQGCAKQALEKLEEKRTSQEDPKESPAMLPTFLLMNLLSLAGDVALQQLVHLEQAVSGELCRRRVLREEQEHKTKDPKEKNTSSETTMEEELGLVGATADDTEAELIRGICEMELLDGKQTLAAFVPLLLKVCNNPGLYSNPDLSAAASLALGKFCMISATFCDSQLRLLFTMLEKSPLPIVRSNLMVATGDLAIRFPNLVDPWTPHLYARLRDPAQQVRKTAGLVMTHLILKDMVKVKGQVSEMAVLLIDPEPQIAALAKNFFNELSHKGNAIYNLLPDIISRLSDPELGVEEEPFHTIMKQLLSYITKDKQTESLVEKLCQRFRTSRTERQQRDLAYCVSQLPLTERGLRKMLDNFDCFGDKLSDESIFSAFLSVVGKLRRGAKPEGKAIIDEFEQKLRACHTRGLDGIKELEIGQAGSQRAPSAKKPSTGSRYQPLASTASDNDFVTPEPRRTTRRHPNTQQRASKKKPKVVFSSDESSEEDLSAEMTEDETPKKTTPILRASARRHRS
# POLR1E, Q9GZS1, UniProt Q9GZS1, whole entry: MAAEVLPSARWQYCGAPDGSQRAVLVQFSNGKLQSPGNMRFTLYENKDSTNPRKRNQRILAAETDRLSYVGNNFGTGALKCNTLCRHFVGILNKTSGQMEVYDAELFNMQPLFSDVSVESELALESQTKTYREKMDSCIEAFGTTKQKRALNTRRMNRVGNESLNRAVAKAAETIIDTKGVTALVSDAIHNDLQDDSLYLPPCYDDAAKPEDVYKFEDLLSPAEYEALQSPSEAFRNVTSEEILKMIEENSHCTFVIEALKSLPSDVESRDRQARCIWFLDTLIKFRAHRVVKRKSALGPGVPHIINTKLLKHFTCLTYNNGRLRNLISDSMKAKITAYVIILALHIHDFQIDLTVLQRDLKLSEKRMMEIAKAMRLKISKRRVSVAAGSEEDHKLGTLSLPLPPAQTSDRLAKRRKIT
# GNB1, P62873, UniProt P62873, whole entry: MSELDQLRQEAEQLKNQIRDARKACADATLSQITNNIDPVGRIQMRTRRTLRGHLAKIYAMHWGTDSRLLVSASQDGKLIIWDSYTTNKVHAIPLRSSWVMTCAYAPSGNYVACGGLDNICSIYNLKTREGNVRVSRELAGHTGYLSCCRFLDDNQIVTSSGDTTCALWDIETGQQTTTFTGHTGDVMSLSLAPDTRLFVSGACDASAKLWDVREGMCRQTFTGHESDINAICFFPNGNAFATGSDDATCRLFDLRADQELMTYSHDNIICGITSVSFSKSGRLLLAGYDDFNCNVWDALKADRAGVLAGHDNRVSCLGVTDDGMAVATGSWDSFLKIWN
# PDHB, P11177, UniProt P11177, whole entry: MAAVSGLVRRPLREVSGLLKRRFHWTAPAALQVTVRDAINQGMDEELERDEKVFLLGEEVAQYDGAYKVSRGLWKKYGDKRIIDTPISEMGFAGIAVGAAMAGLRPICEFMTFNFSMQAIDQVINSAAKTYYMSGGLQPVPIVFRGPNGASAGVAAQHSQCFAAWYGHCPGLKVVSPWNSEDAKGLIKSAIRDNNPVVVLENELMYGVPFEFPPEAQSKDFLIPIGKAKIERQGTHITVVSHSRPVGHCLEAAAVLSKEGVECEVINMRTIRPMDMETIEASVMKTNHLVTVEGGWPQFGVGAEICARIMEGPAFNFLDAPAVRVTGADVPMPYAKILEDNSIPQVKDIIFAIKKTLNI
# How the values were obtained:
# Assay in all cases: PRISMA enrichment of interactor (LFQ) in peptide spot vs all other peptide spots (log2 fold change); higher = stronger / more specific binding of the interactor to the peptide
# [1] = biological target: AATF, Q9NY61
# Experimental: (§1)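 PRISMA: 15-aa overlapping tiles (offset 8 aa) of 60 microproteins, plus SOS1/GLUT1 control peptides, were spot-synthesized on cellulose membranes in triplicate. Membranes were incubated with benzonase-treated HEK293T lysate, and bound proteins were identified by LC-MS/MS with LFQ. Enrichment is the log2 fold change of each protein in one spot versus all other spots. Only interactors passing the significance cutoff are listed.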
# [2] = biological target: ACOT9, Q9Y305
# Experimental: as §1
# [3] = biological target: AMMECR1, Q9Y4X0
# Experimental: as §1
# [4] = biological target: ASNS, P08243
# Experimental: as §1
# [5] = biological target: ATIC, P31939
# Experimental: as §1
# [6] = biological target: BCKDK, O14874
# Experimental: as §1
# [7] = biological target: BIN1, O00499
# Experimental: as §1
# [8] = biological target: BRIX1, Q8TDN6
# Experimental: as §1
# [9] = biological target: CAPZA1, P52907
# Experimental: as §1
# [10] = biological target: CBX4, O00257
# Experimental: as §1
# [11] = biological target: CC2D1A, Q6P1N0
# Experimental: as §1
# [12] = biological target: CD2AP, Q9Y5K6
# Experimental: as §1
# [13] = biological target: CHD1, O14646
# Experimental: as §1
# [14] = biological target: CHMP1A, Q9HD42
# Experimental: as §1
# [15] = biological target: CPSF2, Q9P2I0
# Experimental: as §1
# [16] = biological target: CUL1, Q13616
# Experimental: as §1
# [17] = biological target: EXOC5, O00471
# Experimental: as §1
# [18] = biological target: FANCI, Q9NVI1
# Experimental: as §1
# [19] = biological target: FBXO3, Q9UK99
# Experimental: as §1
# [20] = biological target: FKBP9, O95302
# Experimental: as §1
# [21] = biological target: GATA6, Q92908
# Experimental: as §1
# [22] = biological target: GRB2, P62993
# Experimental: as §1
# [23] = biological target: GTPBP10, A4D1E9
# Experimental: as §1
# [24] = biological target: HAX1, O00165
# Experimental: as §1
# [25] = biological target: HSPB1, P04792
# Experimental: as §1
# [26] = biological target: HSPH1, Q92598
# Experimental: as §1
# [27] = biological target: IPO8, O15397
# Experimental: as §1
# [28] = biological target: KLF16, Q9BXK1
# Experimental: as §1
# [29] = biological target: LYPLAL1, Q5VWZ2
# Experimental: as §1
# [30] = biological target: MOV10, Q9HCE1
# Experimental: as §1
# [31] = biological target: MRPL43, Q8N983
# Experimental: as §1
# [32] = biological target: MRPL58, Q14197
# Experimental: as §1
# [33] = biological target: NCAPD2, Q15021
# Experimental: as §1
# [34] = biological target: PKP2, Q99959
# Experimental: as §1
# [35] = biological target: POLR1E, Q9GZS1
# Experimental: as §1
# [36] = biological target: POLR2J3, Q9H1A7
# Experimental: as §1
# [37] = biological target: PPHLN1, Q8NEY8
# Experimental: as §1
# [38] = biological target: PPIG, Q13427
# Experimental: as §1
# [39] = biological target: PWP1, Q13610
# Experimental: as §1
# [40] = biological target: RNASEH1, O60930
# Experimental: as §1
# [41] = biological target: SLC25A22, Q9H936
# Experimental: as §1
# [42] = biological target: SUPT4H1, P63272
# Experimental: as §1
# [43] = biological target: TMEM177, Q53S58
# Experimental: as §1
# [44] = biological target: TXLNG, Q9NUQ3
# Experimental: as §1
# [45] = biological target: XPO4, Q9C0E2
# Experimental: as §1
# [46] = biological target: ZNF689
# Experimental: as §1
# [47] = biological target: ABAT, P80404
# Experimental: as §1
# [48] = biological target: ACACA, Q13085
# Experimental: as §1
# [49] = biological target: AKAP8L, Q9ULX6
# Experimental: as §1
# [50] = biological target: CENPF, P49454
# Experimental: as §1
# [51] = biological target: DCAF7, P61962
# Experimental: as §1
# [52] = biological target: DNAJA2, O60884
# Experimental: as §1
# [53] = biological target: GLYR1, Q49A26
# Experimental: as §1
# [54] = biological target: GNB1, P62873
# Experimental: as §1
# [55] = biological target: GYG1, P46976
# Experimental: as §1
# [56] = biological target: IVD, P26440
# Experimental: as §1
# [57] = biological target: MAGT1, Q9H0U3
# Experimental: as §1
# [58] = biological target: NOL9, Q5SY16
# Experimental: as §1
# [59] = biological target: PDHB, P11177
# Experimental: as §1
# [60] = biological target: ROMO1, P60602
# Experimental: as §1
# [61] = biological target: SEPTIN7, Q16181
# Experimental: as §1
# [62] = biological target: SF3A3, Q12874
# Experimental: as §1
# [63] = biological target: TOMM34, Q15785
# Experimental: as §1
# [64] = biological target: TRMT5, Q32P41
# Experimental: as §1
# [65] = biological target: WARS, P23381
# Experimental: as §1
binder,measurement,setting,value
EVPVPAPVAPARRP [SOS1_MUT_2],PRISMA enrichment of interactor (log2),[1],6.39
same,PRISMA enrichment of interactor (log2),[2],5.18
same,PRISMA enrichment of interactor (log2),[3],4.15
same,PRISMA enrichment of interactor (log2),[4],6.01
same,PRISMA enrichment of interactor (log2),[5],4.06
same,PRISMA enrichment of interactor (log2),[6],6.51
same,PRISMA enrichment of interactor (log2),[7],4.27
same,PRISMA enrichment of interactor (log2),[8],4.56
same,PRISMA enrichment of interactor (log2),[9],4.29
same,PRISMA enrichment of interactor (log2),[10],4.38
same,PRISMA enrichment of interactor (log2),[11],5.53
same,PRISMA enrichment of interactor (log2),[12],6.6
same,PRISMA enrichment of interactor (log2),[13],5.33
same,PRISMA enrichment of interactor (log2),[14],5.48
same,PRISMA enrichment of interactor (log2),[15],5.24
same,PRISMA enrichment of interactor (log2),[16],4.15
same,PRISMA enrichment of interactor (log2),[17],4.1
same,PRISMA enrichment of interactor (log2),[18],9.97
same,PRISMA enrichment of interactor (log2),[19],3.89
same,PRISMA enrichment of interactor (log2),[20],4.56
same,PRISMA enrichment of interactor (log2),[21],5.81
same,PRISMA enrichment of interactor (log2),[22],5.7
same,PRISMA enrichment of interactor (log2),[23],9.77
same,PRISMA enrichment of interactor (log2),[24],6.04
same,PRISMA enrichment of interactor (log2),[25],3.95
same,PRISMA enrichment of interactor (log2),[26],5.87
same,PRISMA enrichment of interactor (log2),[27],4.68
same,PRISMA enrichment of interactor (log2),[28],4.18
same,PRISMA enrichment of interactor (log2),[29],4.92
same,PRISMA enrichment of interactor (log2),[30],5.15
same,PRISMA enrichment of interactor (log2),[31],5.1
same,PRISMA enrichment of interactor (log2),[32],5.45
same,PRISMA enrichment of interactor (log2),[33],5.4
same,PRISMA enrichment of interactor (log2),[34],4.17
same,PRISMA enrichment of interactor (log2),[35],6.63
same,PRISMA enrichment of interactor (log2),[36],8
same,PRISMA enrichment of interactor (log2),[37],4.16
same,PRISMA enrichment of interactor (log2),[38],4.35
same,PRISMA enrichment of interactor (log2),[39],5.97
same,PRISMA enrichment of interactor (log2),[40],5.78
same,PRISMA enrichment of interactor (log2),[41],6
same,PRISMA enrichment of interactor (log2),[42],5.48
same,PRISMA enrichment of interactor (log2),[43],8.2
same,PRISMA enrichment of interactor (log2),[44],5.51
same,PRISMA enrichment of interactor (log2),[45],3.9
same,PRISMA enrichment of interactor (log2),[46],7.37
HELLVGSPLPDSASF [PSMB8-AS1],PRISMA enrichment of interactor (log2),[47],3.6
same,PRISMA enrichment of interactor (log2),[48],4.84
same,PRISMA enrichment of interactor (log2),[49],5.36
same,PRISMA enrichment of interactor (log2),[50],4.32
same,PRISMA enrichment of interactor (log2),[51],6.63
same,PRISMA enrichment of interactor (log2),[52],6.46
same,PRISMA enrichment of interactor (log2),[53],4.91
same,PRISMA enrichment of interactor (log2),[54],7.21
same,PRISMA enrichment of interactor (log2),[55],5.35
same,PRISMA enrichment of interactor (log2),[56],5.99
same,PRISMA enrichment of interactor (log2),[57],5.47
same,PRISMA enrichment of interactor (log2),[58],5.44
same,PRISMA enrichment of interactor (log2),[59],4.39
same,PRISMA enrichment of interactor (log2),[60],4.05
same,PRISMA enrichment of interactor (log2),[61],4.38
same,PRISMA enrichment of interactor (log2),[62],4.12
same,PRISMA enrichment of interactor (log2),[63],5.34
same,PRISMA enrichment of interactor (log2),[64],5.54
same,PRISMA enrichment of interactor (log2),[65],5.77

# 3 records picked at random from the list so far, as already listed:
binder,measurement,setting,value
EVPVPAPVAPARRP [SOS1_MUT_2],PRISMA enrichment of interactor (log2),[34],4.17
same,PRISMA enrichment of interactor (log2),[36],8
same,PRISMA enrichment of interactor (log2),[41],6
